Results are given in words; binding and its absence hold for the method and conditions named. Some results given as binding are weak or reduced against the parent protein; the word gives no strength. For some assays here: Where a sequence is shown, tags or fusion partners need not be part of it.
Legend:
[1] = biological target: T1, MBP-SNX17 (full-length, wild-type) (UniProt Q15036); test: pull-down; both purified
T1 sequence: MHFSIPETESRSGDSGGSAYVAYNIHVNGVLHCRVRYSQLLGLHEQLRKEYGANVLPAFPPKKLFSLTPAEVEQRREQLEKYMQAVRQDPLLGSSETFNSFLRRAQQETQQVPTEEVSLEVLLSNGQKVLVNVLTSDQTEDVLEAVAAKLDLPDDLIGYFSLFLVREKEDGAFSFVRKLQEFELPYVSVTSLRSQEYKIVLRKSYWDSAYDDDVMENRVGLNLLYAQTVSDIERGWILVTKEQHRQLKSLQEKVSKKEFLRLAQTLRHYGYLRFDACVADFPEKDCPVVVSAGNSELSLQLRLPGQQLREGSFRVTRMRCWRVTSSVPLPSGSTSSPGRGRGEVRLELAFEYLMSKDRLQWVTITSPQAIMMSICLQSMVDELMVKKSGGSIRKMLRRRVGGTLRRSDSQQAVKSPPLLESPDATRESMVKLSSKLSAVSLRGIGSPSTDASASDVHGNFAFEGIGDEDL

Amino acid sequences for entries named in this document (tags omitted). A change or cut given only in a name is not applied to a line headed by its entry. Chains listed by the source or under a name are the forms on record and can include a tag or linker.
GST-LRP1_(ICD-mut) (N4470A + Y4473A) (Q07954, form named): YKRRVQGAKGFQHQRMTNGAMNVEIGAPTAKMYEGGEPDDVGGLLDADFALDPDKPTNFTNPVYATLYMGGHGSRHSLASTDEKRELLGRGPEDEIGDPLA

[2] = biological target: VPS35L (subunit co-expressed in insect cells) (UniProt Q7Z3J2); test: co-purification of co-expressed subunits; Retriever subunits with VPS35L constructs of different lengths co-expressed in insect cells and purified; SDS-PAGE of the purified complexes

Row | binding [1] | binding [2] | Substance
1 | no binding | – | GST-LRP1_(ICD-mut) (N4470A + Y4473A) (from UniProt Q07954 4444-4544) (domain or fragment)
2 | – | binds | VPS26C (subunit co-expressed in insect cells) (from UniProt O14972 1-297)

From paper PMC11772769, “Selective cargo and membrane recognition by SNX17 regulates its interaction with Retriever” (EMBO Reports, 2024)
